Measurements from patent publication US20250049699A1, “COSMETIC COMPOSITION FOR PREVENTION OR IMPROVEMENT OF INFLAMMATORY SKIN DISEASES COMPRISING STRAIN OF GENUS CUTIBACTERIUM” (CJ Bioscience, Inc., priority 2021, published 2025).
At least one compound was matched to its structure with a doubt left.

Key:
[1] = test system: C. acnes (ATCC 6919); assay: Growth inhibition of the acne-causing strain C. acnes (ATCC 6919), absorbance at 600 nm; format: cell-based, Cutibacterium acnes; details: 48 hours, anaerobic, 37° C.; versus nothing treated (NC); doxycycline 0.025 μg/ml
[2] = test system: S. epidermidis bacteria; assay: Biofilm formation inhibition, crystal violet staining; format: cell-based, Staphylococcus epidermidis; details: 24 hours, culture products 5% (v/v), doxycycline 4 μg/ml, versus nothing treated (NC)

SMILES: C[C@H]1c2cccc(O)c2C(=O)C2=C(O)[C@]3(O)C(=O)C(C(N)=O)=C(O)[C@@H](N(C)C)[C@@H]3[C@@H](O)[C@@H]21 [doxycycline]
- growth of the C. acnes ATCC 6919 strain (antimicrobial activity) [1]: reduced
- biofilm formation inhibitory effect [2]: biofilm formation inhibitory effect was shown
